# Some of the results follow.
# B1: AntigenI/IIA3VP1 (Streptococcus mutans), C9E3B4 (protein)
# chain: AANEADYQAKLTAYQTELARVQKANADAKAAYEAAVAANNAANAALTAENTAIKKRNADAKADYEAKLAKYQADLAKYQKDLADYPVKLKAYEDEQASIKAALAELEKHKNEDGNLTEPSAQNLVYDLEPNANLSLTTDGKFLKASAVDDAFSKSTSKAKYDQKILQLDDLDITNLEQSNDVASSMELYGNFGDKAGWSTTVSNNSQVKWGSVLLERGQSATATYTNLQNSYYNGKKISKIVYKYTVDPKSKFQGQKVWLGIFTDPTLGVFASAYTGQVEKNTSIFIKNEFTFYDEDGKPINFDNALLSVASLNREHNSIEMAKDYSGKFVKISGSSIGEKNGMIYATDTLNFKQGEGGSRWTMYKNSQAGSGWDSSDAPNSWYGAGAIKMSGPNNYVTVGATSATNVMPVSDMPVVPGKDNTDGKKPNIWYSLNGKIRAVNVPKVTKEKPTPPVKPTAPTKPTYETEKPLKPAPVAPNYEKEPTPPTRLEHHHHHH
# What was measured:
# Assay in all cases: glycan array binding signal (z-score within array); higher = stronger binding
# Details in all cases: glycan notation: IUPAC condensed, linker removed
# [1] = molecular target: Gal(b1-4)GlcNAc(b1-2)Man(a1-6)[Man(a1-3)]Man(b1-4)GlcNAc(b1-4)GlcNAc
# Outline: (§1)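 Glycan array data came from 3228 arrays in the Consortium for Functional Glycomics database, and only arrays with an available protein sequence were kept. Glycan names were put into IUPAC-condensed notation, and columns mapping to the same glycan were averaged. The binding signal is a within-array Z-score, averaged across arrays of one protein sequence run at different concentrations or buffers and across linkers. A negative Z-score can be read as non-binding.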
# [2] = molecular target: Gal(b1-4)GlcNAc(b1-2)[Gal(b1-4)GlcNAc(b1-4)]Man(a1-3)[Gal(b1-4)GlcNAc(b1-2)Man(a1-6)]Man(b1-4)GlcNAc(b1-4)GlcNAc
# Outline: as §1
# [3] = molecular target: Gal(b1-4)GlcNAc(b1-2)[Gal(b1-4)GlcNAc(b1-4)]Man(a1-3)[Gal(b1-4)GlcNAc(b1-2)[Gal(b1-4)GlcNAc(b1-6)]Man(a1-6)]Man(b1-4)GlcNAc(b1-4)GlcNAc
# Outline: as §1
# [4] = molecular target: Gal(b1-4)GlcNAc(b1-2)[Gal(b1-4)GlcNAc(b1-4)]Man(a1-3)[GlcNAc(b1-4)][Gal(b1-4)GlcNAc(b1-2)Man(a1-6)]Man(b1-4)GlcNAc(b1-4)GlcNAc
# Outline: as §1
# [5] = molecular target: Gal(b1-4)GlcNAc(b1-2)[Gal(b1-4)GlcNAc(b1-4)]Man(a1-3)[GlcNAc(b1-4)][Gal(b1-4)GlcNAc(b1-2)[Gal(b1-4)GlcNAc(b1-6)]Man(a1-6)]Man(b1-4)GlcNAc(b1-4)GlcNAc
# Outline: as §1
# [6] = molecular target: Gal(b1-4)GlcNAc(b1-2)[Gal(b1-4)GlcNAc(b1-6)]Man(a1-6)[Gal(b1-4)GlcNAc(b1-2)Man(a1-3)]Man(b1-4)GlcNAc(b1-4)GlcNAc
# Outline: as §1
# [7] = molecular target: Gal(b1-4)GlcNAc(b1-2)[Gal(b1-4)GlcNAc(b1-6)]Man(a1-6)[Gal(b1-4)GlcNAc(b1-2)Man(a1-3)]Man(b1-4)GlcNAc(b1-4)[Fuc(a1-6)]GlcNAc
# Outline: as §1
# [8] = molecular target: Gal(b1-4)GlcNAc(b1-2)[Gal(b1-4)GlcNAc(b1-6)]Man(a1-6)[GlcNAc(b1-4)][Gal(b1-4)GlcNAc(b1-2)Man(a1-3)]Man(b1-4)GlcNAc(b1-4)GlcNAc
# Outline: as §1
# [9] = molecular target: Gal(b1-4)GlcNAc(b1-2)[Gal(b1-4)GlcNAc(b1-6)]Man(a1-6)[GlcNAc(b1-4)][Gal(b1-4)GlcNAc(b1-2)[Gal(b1-4)GlcNAc(b1-4)]Man(a1-3)]Man(b1-4)GlcNAc(b1-4)[Fuc(a1-6)]GlcNAc
# Outline: as §1
# [10] = molecular target: Gal(b1-4)GlcNAc(b1-3)Gal(b1-3)GalNAc
# Outline: as §1
# [11] = molecular target: Gal(b1-4)GlcNAc(b1-3)Gal(b1-3)GlcNAc
# Outline: as §1
# [12] = molecular target: Gal(b1-4)GlcNAc(b1-3)Gal(b1-4)Glc
# Outline: as §1
# [13] = molecular target: Gal(b1-4)GlcNAc(b1-3)Gal(b1-4)GlcNAc
# Outline: as §1
# [14] = molecular target: Gal(b1-4)GlcNAc(b1-3)Gal(b1-4)GlcNAc(b1-2)Man(a1-3)[Gal(b1-4)GlcNAc(b1-3)Gal(b1-4)GlcNAc(b1-2)Man(a1-6)]Man(b1-4)GlcNAc(b1-4)GlcNAc
# Outline: as §1
# [15] = molecular target: Gal(b1-4)GlcNAc(b1-3)Gal(b1-4)GlcNAc(b1-2)Man(a1-3)[Gal(b1-4)GlcNAc(b1-3)Gal(b1-4)GlcNAc(b1-2)Man(a1-6)]Man(b1-4)GlcNAc(b1-4)[Fuc(a1-6)]GlcNAc
# Outline: as §1
# [16] = molecular target: Gal(b1-4)GlcNAc(b1-3)Gal(b1-4)GlcNAc(b1-2)[Gal(b1-4)GlcNAc(b1-3)Gal(b1-4)GlcNAc(b1-6)]Man(a1-6)[Gal(b1-4)GlcNAc(b1-3)Gal(b1-4)GlcNAc(b1-2)Man(a1-3)]Man(b1-4)GlcNAc(b1-4)GlcNAc
# Outline: as §1
# [17] = molecular target: Gal(b1-4)GlcNAc(b1-3)Gal(b1-4)GlcNAc(b1-2)[Gal(b1-4)GlcNAc(b1-3)Gal(b1-4)GlcNAc(b1-6)]Man(a1-6)[Gal(b1-4)GlcNAc(b1-3)Gal(b1-4)GlcNAc(b1-2)Man(a1-3)]Man(b1-4)GlcNAc(b1-4)[Fuc(a1-6)]GlcNAc
# Outline: as §1
# [18] = molecular target: Gal(b1-4)GlcNAc(b1-3)Gal(b1-4)GlcNAc(b1-3)Gal(b1-4)GlcNAc
# Outline: as §1
binder,measurement,setting,value
B1,glycan array binding signal (z-score),[1],0.473
same,glycan array binding signal (z-score),[2],-0.519
same,glycan array binding signal (z-score),[3],0.027
same,glycan array binding signal (z-score),[4],-0.31
same,glycan array binding signal (z-score),[5],0.598
same,glycan array binding signal (z-score),[6],-0.418
same,glycan array binding signal (z-score),[7],-0.251
same,glycan array binding signal (z-score),[8],-0.581
same,glycan array binding signal (z-score),[9],-0.574
same,glycan array binding signal (z-score),[10],-0.492
same,glycan array binding signal (z-score),[11],0.173
same,glycan array binding signal (z-score),[12],-0.381
same,glycan array binding signal (z-score),[13],-0.087
same,glycan array binding signal (z-score),[14],0.701
same,glycan array binding signal (z-score),[15],2.04
same,glycan array binding signal (z-score),[16],1.55
same,glycan array binding signal (z-score),[17],1.53
same,glycan array binding signal (z-score),[18],-0.396

# Another view of part of the listing above:
binder	measurement	setting	value
B1	glycan array binding signal (z-score)	[10]	-0.492
same	glycan array binding signal (z-score)	[11]	0.173

# Reference: the supplement of paper PMC8728848
